Test [1] concerns the target T1, Myc-tagged full-length CRB3A (Myc-CRB3A WT) (human) (UniProt Q9BUF7).
T1 sequence: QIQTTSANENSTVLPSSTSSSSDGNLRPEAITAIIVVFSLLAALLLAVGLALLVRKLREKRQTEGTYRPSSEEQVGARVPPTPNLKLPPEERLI
Kind of test: co-IP; anti-Myc immunoprecipitation from lysates of SKCO-15 cells transfected with Myc-Crb3 WT or mutants; relaxation lysis buffer (10 mM HEPES, 10 mM NaCl, 3.5 mM MgCl2, 100 mM KCl, 1% octyl glucoside); 5 ug/mL antibody or control IgG overnight at 4°C; protein G Dynabeads; Western blotting for NF2, Ezrin, PALS1 and Myc-tag. Background: In western blotting, separated proteins are transferred to a membrane and probed.

The chains behind the UniProt entries cited, without tags or fusion partners.
UniProt P15311: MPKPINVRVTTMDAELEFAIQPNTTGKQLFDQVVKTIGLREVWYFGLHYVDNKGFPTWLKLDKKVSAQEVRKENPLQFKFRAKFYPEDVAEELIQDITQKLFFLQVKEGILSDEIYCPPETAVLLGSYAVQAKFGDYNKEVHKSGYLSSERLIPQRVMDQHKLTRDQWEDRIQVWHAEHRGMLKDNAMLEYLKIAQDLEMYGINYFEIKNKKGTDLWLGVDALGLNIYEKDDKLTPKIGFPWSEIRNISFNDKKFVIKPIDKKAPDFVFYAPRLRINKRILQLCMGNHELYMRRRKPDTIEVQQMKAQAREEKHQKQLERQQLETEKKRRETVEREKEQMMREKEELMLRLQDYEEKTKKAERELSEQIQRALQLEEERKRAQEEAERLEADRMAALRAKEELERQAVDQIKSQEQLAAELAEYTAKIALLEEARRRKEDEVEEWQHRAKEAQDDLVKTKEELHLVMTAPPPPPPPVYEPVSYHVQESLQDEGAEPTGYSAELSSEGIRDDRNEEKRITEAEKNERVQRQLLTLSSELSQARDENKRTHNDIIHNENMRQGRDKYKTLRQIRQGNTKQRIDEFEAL

Test [2] deals with T1, Myc-tagged full-length CRB3A (Myc-CRB3A WT) (human). The description is as above. This is another data set of the same source.

This is an account of results in article PMC12581665.

Like-named read-outs stand apart in the source and are kept apart here. Results are given in words; binding and its absence hold for the method and conditions named. Binding seen in cells or lysates may run through a third protein. Some entries that bind do so weakly or less than the wild type. Tags and fused reporters may be left off the sequences shown.

On to “Ezrin, endogenous (from UniProt P15311 1-586)”, for which the binding result in test [1] is listed as “no binding”.

B1: PALS1 (protein associated with Lin seven), endogenous (protein, UniProt Q8N3R9 1-675)
chain: MTTSHMNGHVTEESDSEVKNVDLASPEEHQKHREMAVDCPGDLGTRMMPIRRSAQLERIRQQQEDMRRRREEEGKKQELDLNSSMRLKKLAQIPPKTGIDNPMFDTEEGIVLESPHYAVKILEIEDLFSSLKHIQHTLVDSQSQEDISLLLQLVQNKDFQNAFKIHNAITVHMNKASPPFPLISNAQDLAQEVQTVLKPVHHKEGQELTALLNTPHIQALLLAHDKVAEQEMQLEPITDERVYESIGQYGGETVKIVRIEKARDIPLGATVRNEMDSVIISRIVKGGAAEKSGLLHEGDEVLEINGIEIRGKDVNEVFDLLSDMHGTLTFVLIPSQQIKPPPAKETVIHVKAHFDYDPSDDPYVPCRELGLSFQKGDILHVISQEDPNWWQAYREGDEDNQPLAGLVPGKSFQQQREAMKQTIEEDKEPEKSGKLWCAKKNKKKRKKVLYNANKNDDYDNEEILTYEEMSLYHQPANRKRPIILIGPQNCGQNELRQRLMNKEKDRFASAVPHTTRSRRDQEVAGRDYHFVSRQAFEADIAAGKFIEHGEFEKNLYGTSIDSVRQVINSGKICLLSLRTQSLKTLRNSDLKPYIIFIAPPSQERLRALLAKEGKNPKPEELREIIEKTREMEQNNGHYFDTAIVNSDLDKAYQELLRLINKLDTEPQWVPSTWLR
Take B1: the binding entry in test [2] is “binds”.
